This passage reports IC50 results from US10730840B2, “Substituted tetrahydroisoquinoline ethylbenzamide anti-cancer agents” (Florida A&M University, priority 2017, dated 2020).

Like-named read-outs stand apart in the source and are kept apart here.

The experiment deals with Ishikawa (endometrial) cancer cell line. As to the kind of experiment: CellTiter-Glo antiproliferative activity, Ishikawa cell line. As to conditions: Homo sapiens, in the presence of 10 nM estradiol. It counts as cell-based. An excerpt:
Numerous substituted THIQs were systematically synthesized employing molecular design and structure activity relationship studies (Suresh et al., (2014) Lett. Drug Design & Discov. 11: 428-436; Gangapuram et al., (2014) J. Cancer Sci. Ther. 6: 161-169). The compounds' cytotoxic effects on MCF-7 (estrogen receptor positive breast cancer) cell lines, MDA-MB-231 (estrogen receptor negative breast cancer) cell lines and Ishikawa cell lines using CellTiter-Glo (CTG) luminescent cell viability essay were studied. The tests were done on different concentrations of the compounds ranging from 0.01 to 100,000 nM on 5000 MCF-7 cells/well, on 5000 MDA-MB-231 cells/well and on 5000 Ishikawa cells/well. Drug exposed cells were incubated at 37° C. for three days followed by CTG assay. Then IC50 values were generated from Graph Pad Prism 4. […]
The antiproliferative activities of substituted tetrahydroisoquinolines 2a-2m, 3a-3l and 4a-4f were evaluated according to the procedure reported previously (Crouch et al., (1993) J. Immunol. Methods 160: 81-88).
Human MCF-7 and MDA-MB-231 breast cancer cell lines were purchased from the NCI. The human Ishikawa endometrial cancer cell line was purchased from Sigma Aldrich. […]
The amount of ATP is determined using a system based on luciferase and D-luciferin resulting in light generation.

In general, IC50 refers to the midpoint of a concentration-inhibition curve. Take `CC/C(=C(\c1ccccc1)c1ccc(OCCN(C)C)cc1)c1ccccc1` [Tamoxifen, reference compound]: the IC50 (72 h exposure, read-out: IC50 against Ishikawa cell line) was 7.87 µg/mL and the IC50 (Table 1, 72 h exposure, read-out: IC50 Ishikawa) is 7.87 µg/mL.
